In PMC10160066:
These are yes or no findings as the source states them, for the method shown. Binding seen in cells or lysates may run through a third protein. For some of these results: A result given as binding can be weak or reduced; the word gives no strength. For some of these results: Sequences can lack the tags named with a protein. One block for each molecule: values may come before it.

Legend:
[1] = target: T1, TFT3, split-luciferase fusion (tomato) (UniProt P93209); assay: split reporter; split-luciferase; NLUC and CLUC fusions co-infiltrated into N. benthamiana leaves; luminescence imaged 3 days post-infiltration
T1 sequence: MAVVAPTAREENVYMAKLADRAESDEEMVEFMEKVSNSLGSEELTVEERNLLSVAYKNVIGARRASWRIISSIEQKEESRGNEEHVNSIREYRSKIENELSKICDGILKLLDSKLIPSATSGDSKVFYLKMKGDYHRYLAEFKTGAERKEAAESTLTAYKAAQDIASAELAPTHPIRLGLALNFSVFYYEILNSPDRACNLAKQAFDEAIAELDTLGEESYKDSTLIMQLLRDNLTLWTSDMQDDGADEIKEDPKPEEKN

TFT3-GFP (tomato) = target: T2, TFT3-GFP (tomato) (UniProt P93209); assay: co-IP; constructs co-expressed in N. benthamiana leaves; extract incubated with GFP-Trap, Myc-Trap, anti-FLAG M2 or anti-HA agarose beads for 2 h at 4 °C, five washes, immunoblot; the Prf-Pto pair was tested with and without AvrPto co-expressed
T2 sequence: T1 sequence

TFT3 (tomato) = target: T3, TFT3 (tomato) (UniProt P93209); assay: co-IP + split reporter; series of co-immunoprecipitation and split-luciferase experiments with Prf and the TFT isoforms in N. benthamiana; which of the two Supplementary Fig. 1b shows is not told
T3 sequence: T1 sequence

TFT1 (tomato) = target: T4, TFT1 (tomato) (UniProt P93206); assay: as above
T4 sequence: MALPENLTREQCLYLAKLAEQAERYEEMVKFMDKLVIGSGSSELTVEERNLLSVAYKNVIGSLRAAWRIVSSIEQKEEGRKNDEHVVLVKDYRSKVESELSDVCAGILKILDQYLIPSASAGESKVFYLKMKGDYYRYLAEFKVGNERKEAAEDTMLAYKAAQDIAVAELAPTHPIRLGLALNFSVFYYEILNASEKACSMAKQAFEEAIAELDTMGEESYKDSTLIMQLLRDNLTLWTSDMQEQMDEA

Pto-FLAG (tomato) = target: T5, Pto-FLAG (tomato) (UniProt Q40234); assay: co-IP + native gel or EMSA; Prf-Myc and Pto-FLAG expressed from their native promoters in N. benthamiana, with or without AvrPto or AvrPtoB; IP with α-FLAG agarose beads; eluted fraction run on blue native PAGE (4-16% NativePAGE Bis-Tris)
T5 sequence: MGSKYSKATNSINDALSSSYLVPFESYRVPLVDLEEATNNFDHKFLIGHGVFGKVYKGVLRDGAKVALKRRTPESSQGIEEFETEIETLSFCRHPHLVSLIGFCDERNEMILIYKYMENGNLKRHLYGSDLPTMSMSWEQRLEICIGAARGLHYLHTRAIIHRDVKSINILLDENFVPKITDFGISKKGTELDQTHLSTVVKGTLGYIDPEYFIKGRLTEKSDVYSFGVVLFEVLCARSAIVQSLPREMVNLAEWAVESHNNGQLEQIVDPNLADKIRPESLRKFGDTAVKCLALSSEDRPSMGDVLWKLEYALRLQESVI

Prf-HA (tomato) = assay: co-IP; constructs co-expressed in N. benthamiana leaves; extract incubated with GFP-Trap, Myc-Trap, anti-FLAG M2 or anti-HA agarose beads for 2 h at 4 °C, five washes, immunoblot; the Prf-Pto pair was tested with and without AvrPto co-expressed

binding [1]: binds
Molecule: MAPKKKα, split-luciferase fusion (tomato) (enzyme)

binding (TFT3-GFP (tomato)): binds
Molecule: MAPKKKα-HA (tomato) (enzyme)

binding (TFT3-GFP (tomato)): binds
Molecule: N-terminal-deleted autoactive version of MAPKKKα, HA tagged (tomato) (domain or fragment)

binding (TFT3 (tomato)): no binding
binding (TFT1 (tomato)): no binding
Molecule: Prf (tomato) (receptor)

binding (Pto-FLAG (tomato)): binds
Molecule: Prf-Myc (tomato) (receptor)

binding (Prf-HA (tomato)): binds
B1: Pto-FLAG (enzyme, UniProt Q40234 1-321)
chain: T5 sequence
